{
  "sequences": {"note": "Sequences of proteins named here, by UniProt entry; tags and fusion partners are left off. Residues count along the entry.", "UniProt P02769, 25-607": "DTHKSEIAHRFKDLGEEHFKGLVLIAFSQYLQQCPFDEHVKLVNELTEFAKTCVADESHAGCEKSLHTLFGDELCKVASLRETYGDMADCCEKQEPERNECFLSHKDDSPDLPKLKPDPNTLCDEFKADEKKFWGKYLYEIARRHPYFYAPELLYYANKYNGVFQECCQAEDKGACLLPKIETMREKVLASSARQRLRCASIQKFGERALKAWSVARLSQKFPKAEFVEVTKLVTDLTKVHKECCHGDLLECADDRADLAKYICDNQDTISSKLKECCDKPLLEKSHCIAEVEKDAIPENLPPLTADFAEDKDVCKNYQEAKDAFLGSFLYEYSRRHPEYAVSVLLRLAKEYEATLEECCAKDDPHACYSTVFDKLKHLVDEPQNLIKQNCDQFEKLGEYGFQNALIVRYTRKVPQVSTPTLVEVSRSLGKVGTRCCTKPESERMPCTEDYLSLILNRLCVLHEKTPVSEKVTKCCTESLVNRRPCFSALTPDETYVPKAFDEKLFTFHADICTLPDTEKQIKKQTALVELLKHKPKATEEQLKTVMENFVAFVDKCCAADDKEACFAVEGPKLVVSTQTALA"},
  "source": "paper PMC7411789",
  "key": {"[1]": {"tested_on": "VEGF", "assay": "antibody-aptamer sandwich plate assay, GDH activity read-out", "conditions": "ZF-GDH label, BAF293 capture, TBS: 10 mM Tris-HCl, 100 mM NaCl, pH 7.0, washes with 0.05% Tween-20, block 4% skim milk, 25 °C, 1 h, commercial protein, folded or branched DNA"}, "[2]": {"biological_target": "BSA (bovine) (UniProt P02769)", "assay": "antibody-aptamer sandwich plate assay, GDH activity read-out", "conditions": "ZF-GDH label, BAF293 capture, BSA in place of VEGF; TBS: 10 mM Tris-HCl, 100 mM NaCl, pH 7.0; washes with 0.05% Tween-20, block 4% skim milk; 25 °C, 1 h; commercial protein; folded or branched DNA"}},
  "note": "For part of these data: No signal at the amounts used counts as a negative.",
  "data": [
    {"sequence": "GATGCGTGGGCGAGGTACCAAAAGATGATCTTGGGCCCGTCCGAATGGTGGGTGTTCTCGCCCACGCATC [2G19-Z]", "values": [
      {"measurement": "binding result", "setting": "[1]; 0-100 nM VEGF", "result": "binds"},
      {"measurement": "binding result", "setting": "[2]", "result": "no binding"}
    ]},
    {"sequence": "TATGCGTGGGCGACTTTTGTCGCCCACGCATATGTGGGGGTGGACGGGCCGGGTAGA [V7t1-Z]", "values": [
      {"measurement": "binding result", "setting": "[1]; 100 nM VEGF", "result": "binds"}
    ]}
  ]
}
